Test results taken from patent US20060234227.
For at least one entry, the source does not settle the construct or the ends of the probe.

Sequences of proteins named here, by UniProt entry; tags and fusion partners are left off. Residues count along the entry.
UniProt P19821, 290-832: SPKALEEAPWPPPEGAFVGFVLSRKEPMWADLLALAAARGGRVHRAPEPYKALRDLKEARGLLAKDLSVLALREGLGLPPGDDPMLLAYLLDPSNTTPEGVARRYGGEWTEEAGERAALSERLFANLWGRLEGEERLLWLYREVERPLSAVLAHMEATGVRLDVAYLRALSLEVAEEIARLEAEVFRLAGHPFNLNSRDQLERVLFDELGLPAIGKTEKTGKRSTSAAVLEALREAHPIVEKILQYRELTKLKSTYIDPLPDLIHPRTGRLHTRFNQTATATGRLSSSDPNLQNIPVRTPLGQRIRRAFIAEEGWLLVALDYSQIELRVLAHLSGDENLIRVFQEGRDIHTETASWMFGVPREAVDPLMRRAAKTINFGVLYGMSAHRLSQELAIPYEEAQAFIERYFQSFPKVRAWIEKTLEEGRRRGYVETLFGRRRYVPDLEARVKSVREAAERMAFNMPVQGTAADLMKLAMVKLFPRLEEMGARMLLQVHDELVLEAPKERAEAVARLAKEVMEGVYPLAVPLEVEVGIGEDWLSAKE
UniProt P19821, whole entry: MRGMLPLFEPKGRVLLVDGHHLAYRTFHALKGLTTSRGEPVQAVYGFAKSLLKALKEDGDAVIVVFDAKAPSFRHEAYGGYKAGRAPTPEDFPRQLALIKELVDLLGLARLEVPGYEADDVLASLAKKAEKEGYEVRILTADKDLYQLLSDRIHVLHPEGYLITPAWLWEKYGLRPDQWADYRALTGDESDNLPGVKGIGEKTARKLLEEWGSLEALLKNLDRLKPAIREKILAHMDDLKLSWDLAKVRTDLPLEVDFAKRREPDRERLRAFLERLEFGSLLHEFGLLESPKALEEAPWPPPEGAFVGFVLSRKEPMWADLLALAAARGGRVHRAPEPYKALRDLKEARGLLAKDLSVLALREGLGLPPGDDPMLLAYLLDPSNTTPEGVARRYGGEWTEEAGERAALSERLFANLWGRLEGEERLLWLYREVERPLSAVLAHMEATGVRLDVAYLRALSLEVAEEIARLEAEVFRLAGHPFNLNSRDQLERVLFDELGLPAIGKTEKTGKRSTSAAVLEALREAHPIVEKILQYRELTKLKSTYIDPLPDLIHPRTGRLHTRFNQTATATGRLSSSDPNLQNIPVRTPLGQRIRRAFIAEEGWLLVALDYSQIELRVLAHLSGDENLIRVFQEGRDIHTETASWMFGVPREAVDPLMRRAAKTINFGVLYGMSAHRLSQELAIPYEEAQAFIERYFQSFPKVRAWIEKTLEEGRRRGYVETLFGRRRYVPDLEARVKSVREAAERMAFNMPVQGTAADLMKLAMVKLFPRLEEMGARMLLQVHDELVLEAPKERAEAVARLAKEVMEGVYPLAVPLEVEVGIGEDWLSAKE
UniProt P19821, 281-832: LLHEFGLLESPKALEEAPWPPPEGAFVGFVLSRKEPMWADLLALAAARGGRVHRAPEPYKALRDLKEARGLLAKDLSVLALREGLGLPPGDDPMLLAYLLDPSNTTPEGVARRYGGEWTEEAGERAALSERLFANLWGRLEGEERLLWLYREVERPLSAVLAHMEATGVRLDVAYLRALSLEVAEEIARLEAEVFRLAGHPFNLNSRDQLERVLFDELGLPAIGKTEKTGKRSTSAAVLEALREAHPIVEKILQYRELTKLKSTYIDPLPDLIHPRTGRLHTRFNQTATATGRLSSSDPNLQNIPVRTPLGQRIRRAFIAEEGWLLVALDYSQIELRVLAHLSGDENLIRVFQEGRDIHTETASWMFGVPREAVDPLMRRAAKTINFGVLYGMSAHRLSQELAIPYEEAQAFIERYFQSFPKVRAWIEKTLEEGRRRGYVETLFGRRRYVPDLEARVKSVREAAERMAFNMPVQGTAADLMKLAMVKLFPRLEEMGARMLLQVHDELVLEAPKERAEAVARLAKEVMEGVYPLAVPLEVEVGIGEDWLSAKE

Key:
Test in all cases: activity assay
[1] = target: Stoffel fragment of Taq DNA polymerase (Thermus aquaticus) (UniProt P19821); conditions: 4.5 mM MgCl2, purified recombinant protein, protein details: Applied BioSystems, label: 5'-fluorescein on primer
[2] = target: Taq DNA polymerase (Thermus aquaticus) (UniProt P19821); conditions: 4.5 mM MgCl2, purified recombinant protein, protein details: Roche Applied Science, label: 5'-fluorescein on primer
[3] = target: KlenTaq fragment of Taq DNA polymerase (Thermus aquaticus) (UniProt P19821); conditions: 4.5 mM MgCl2, purified recombinant protein, protein details: GeneCraft, label: 5'-fluorescein on primer
[4] = system: TopoTaq (Topo V 685-984 - AYDVGA linker - Taq 290-832) (Methanopyrus kandleri / Thermus aquaticus chimera); conditions: 4.5 mM MgCl2, purified recombinant protein, protein details: initiating Met, expressed in E. coli BL21 pLysS, label: 5'-fluorescein on primer
[5] = system: PfuC2 (Pfu DNA polymerase - Topo V C2 domain 518-984); conditions: 4.5 mM MgCl2, purified recombinant protein, protein details: starts Met-Val instead of Met-Ile, Lys-Leu linker, label: 5'-fluorescein on primer
[6] = system: TaqTopoC1 (Taq 279-832 - Topo V 384-984) (Thermus aquaticus / Methanopyrus kandleri chimera); conditions: 4.5 mM MgCl2, purified recombinant protein, label: 5'-fluorescein on primer
[7] = target: Pfu DNA polymerase (Pyrococcus furiosus) (UniProt P61875); conditions: 4.5 mM MgCl2, purified recombinant protein, label: 5'-fluorescein on primer
[8] = system: TaqTopoC3 (Taq 279-832 - Topo V 676-984) (Thermus aquaticus / Methanopyrus kandleri chimera); conditions: 4.5 mM MgCl2, purified recombinant protein, label: 5'-fluorescein on primer
[9] = system: TaqTopoC2 (Taq 279-832 - Topo V 518-984) (Thermus aquaticus / Methanopyrus kandleri chimera); conditions: 4.5 mM MgCl2, purified recombinant protein, label: 5'-fluorescein on primer
[10] = primer extension 50-105 C, no added salt
[11] = primer extension 50-105 C, 0.25 M potassium glutamate

Measured: activity on this sequence

GTAATACGACTCACTATAGGG / CCCCCAAAAACCCTATAGTGAGTCGTATTACAATTCACTGGCCGTCGTTTTT [PTJ primer-template junction]
active: [1]; primer extension 75 C, salt inhibition Ki NaCl 38.6, KCl 45.8, KGlu 59.6 | [2]; primer extension 75 C, salt inhibition Ki NaCl 138.7, KCl 161.0, KGlu 610 | [3]; primer extension 75 C, salt inhibition Ki NaCl 40.0, KCl 32.7, KGlu 71.0 | [4]; primer extension 75 C, salt inhibition Ki NaCl 241.3, KCl 291.1, KGlu 1403.0 (unit not given) | [5]; primer extension 75 C, salt inhibition Ki NaCl 159.6, KCl 176.8, KGlu 424.8 | [6]; primer extension 75 C, salt inhibition Ki NaCl 228.4, KCl 231.2, KGlu 1730.0 | [7]; primer extension 75 C, salt inhibition Ki NaCl 51.5, KCl 42.6, KGlu 42.8 | [8]; primer extension 75 C, salt inhibition Ki NaCl 69.0, KCl 187.7, KGlu 295.8 | [9]; primer extension 75 C, salt inhibition Ki NaCl 238.4, KCl 251.0, KGlu 1164.5

GTGTGGTGGTGGTGGTGGTGGTGGTGGTGGTGGTGGTGGT / CACACCACCACCACCACCACCACCACCACCACCACCACCAAAAAATTTTT [high-temperature PTJ]
active: [1]; [10] | [2]; [10] | [3]; [10] | [4]; [11] | [5]; [11] | [6]; [11] | [7]; [10] | [8]; [11] | [9]; [11]
